The values that follow come from US20250376709A1, “PAPB AS A BIMOIETY-DEPENDENT THIOETHER INSTALLATION TOOL” (UNIVERSITY OF UTAH RESEARCH FOUNDATION, priority 2022, published 2025).

A short description of the data set: Alkylation of msPapA peptides and variants with iodoacetic acid (free thiol check). The settings on record: PapB-treated peptide, 10 mM iodoacetic acid.
As to “LKQINVIAGVKEPIRAYGCSAN^DDA (LKQINVIAGVKEPIRAYGCSANDA) [leader-CSAN^DDA]”, the “carboxymethylation / free thiol after iodoacetic acid treatment” value is listed as “carboxymethylation is present”. For “LKQINVIAGVKEPIRAYGPCSAN^DDA (LKQINVIAGVKEPIRAYGCSANDA) [leader-^DCSAN^DDA]” the value was “carboxymethylation is present”; for “LKQINVIAGVKEPIRAYG^DCSANDA (LKQINVIAGVKEPIRAYGCSANDA) [leader-^DCSANDA]”, “no carboxymethylation”.
